Test results published in the supplement of paper PMC5949888.
Most values lie at the floor of the assay. Slopes are relative: functional sequences can read slightly below zero.

What follows are substances tested on Saccharomyces cerevisiae PS128 hsf1 delta, HSF1(1-493) fusion (assay: growth estimate (transactivation domain function in HSF1 fusion, heat-shock survival) (a.u. (slope of normalised read count over time)); higher = stronger growth at 37°C, i.e. more transactivation activity). Details: library: random library.
IGSLPSLRPFLKNEATQRQA showed a growth estimate of under -0.25.
Substance RGYIW has a growth estimate of under -0.25.
With CFGRHHVQLTAL the growth estimate was under -0.25.
Work on RTTTSGDEQIGLVVLLASTP yielded a growth estimate of under -0.25.
With IMVKCYPLTMPRRWKQTGYD the growth estimate was under -0.25.
Work on GTRMFTFPATTISCPWDRCT yielded a growth estimate of under -0.25.
In the case of LSTSARPVGCWR, the growth estimate is reported as under -0.25.
In the case of IRNTGSAKCVEEAYANLAQR, the growth estimate is reported as -0.245.
LETN gave a growth estimate of under -0.25.
LVVRSCLCHYPC showed a growth estimate of under -0.25.
Work on SSFRRPGIDRHATYTKGRLP yielded a growth estimate of under -0.25.
GSAVPFLYAHSDKTGKRGVT showed a growth estimate of under -0.25.
In the case of ELLTS, the growth estimate is reported as under -0.25.
In the case of TLCRYITW, the growth estimate is reported as -0.222.
For KAIHPVGLRLGINHQSQGGS, the growth estimate was under -0.25.
Substance RQCEARRDMCLVMIRGIVFA has a growth estimate of under -0.25.
TTLVQRSAGSVWPDGGKPPS was tested, and the growth estimate was under -0.25.
With NRMACQPEPTASRWEVMHYG the growth estimate was under -0.25.
LDDRRVWQFWLKMTWRRTVL showed a growth estimate of under -0.25.
IASCTRHHLCATCITA gave a growth estimate of under -0.25.
MLCSLARVRDLHGCVECIVH was tested, and the growth estimate was under -0.25.
In the case of FRADRSFLHGVRPRRKARAR, the growth estimate is reported as under -0.25.
With LIKVGSNANQSATGFSQYYP the growth estimate was under -0.25.
Work on FFWHERTCL yielded a growth estimate of under -0.25.
With ALGGRWV the growth estimate was -0.228.
Work on IAVEWWTTKVRTLIVQSA yielded a growth estimate of under -0.25.
With LRVLHTPLWSIKIVPPYDAG the growth estimate was under -0.25.
Work on ASFISSGSPSAAECGACRSA yielded a growth estimate of under -0.25.
In the case of CVFEQIGSSVTVTHGPSEER, the growth estimate is reported as under -0.25.
With CPG the growth estimate was under -0.25.
In the case of YKITETG, the growth estimate is reported as under -0.25.
RTLRV gave a growth estimate of under -0.25.
For GRQRRVDISWMRYVKPVLFF, the growth estimate was under -0.25.
Substance CRRWQA has a growth estimate of under -0.25.
HSSGGSWRVTGAWLLAVYPC showed a growth estimate of under -0.25.
PPDGMELGRQQECTLDQPLL was tested, and the growth estimate was under -0.25.
CIGFSTQSLVVDQFAHRRSA was tested, and the growth estimate was under -0.25.
With ATTRTALYYDR the growth estimate was -0.246.
In the case of AGARHCDFRAPCIHGKDTVS, the growth estimate is reported as under -0.25.
Work on RYNGKGQKCTARHCSDQSRS yielded a growth estimate of under -0.25.
ARSGCYEETPG showed a growth estimate of under -0.25.
Substance RELLMSRAQEWP has a growth estimate of under -0.25.
With LAYCQPVNQGISG the growth estimate was -0.229.
Substance IPCEV has a growth estimate of -0.244.
ESDFL showed a growth estimate of under -0.25.
In the case of PHLW, the growth estimate is reported as under -0.25.
GQVAKECRYSGRSGFNVYEG gave a growth estimate of under -0.25.
Work on GYYPLGNSSRSCITQGRHVL yielded a growth estimate of under -0.25.
Substance GSLIP has a growth estimate of under -0.25.
ISSRGGEP gave a growth estimate of under -0.25.
LGSHMRPKGSANPG gave a growth estimate of under -0.25.
In the case of SDVLGGKTPVLSDSFLLMAG, the growth estimate is reported as under -0.25.
Substance REL has a growth estimate of under -0.25.
With HLFCFQVGQYTTGFRMRDTL the growth estimate was under -0.25.
Substance WYREHDN has a growth estimate of under -0.25.
In the case of NVVASSNCVREVVYVG, the growth estimate is reported as under -0.25.
NRVLLN was tested, and the growth estimate was -0.243.
In the case of VARRDTPFVGPKGLTILVPI, the growth estimate is reported as under -0.25.
Substance GRYIHVRKTR has a growth estimate of under -0.25.
In the case of GLQLAQPERLYGEASGKGVL, the growth estimate is reported as under -0.25.
Substance IRFGSYPRKRYWWCPDIMVG has a growth estimate of -0.245.
CGTNELNREAACRGGGGLIG gave a growth estimate of under -0.25.
Substance KRLIRPTWSFVYLQSVQIGT has a growth estimate of under -0.25.
VGEGRAIMVSQKMGVVGGLC was tested, and the growth estimate was under -0.25.
AMNTR was tested, and the growth estimate was under -0.25.
YCNKSSPCGMRLIGVRTVPV gave a growth estimate of 0.17.
With TDGLCVGHNGGFNLEFTLLP the growth estimate was 8.16.
For LRCSVRGLCNLHLESRISNA, the growth estimate was under -0.25.
Work on GRVRALQGHIGVRLHPYIAN yielded a growth estimate of under -0.25.
GSDVSLVAPLAGPAIVSCMT gave a growth estimate of under -0.25.
Substance TWMLWVT has a growth estimate of under -0.25.
YCSRNGTALSSR gave a growth estimate of under -0.25.
With TFVGRNIGAGGSPTQRGN the growth estimate was under -0.25.
For LFLRTPHVISYESGLHLLQA, the growth estimate was under -0.25.
For HQALSTGTGSES, the growth estimate was under -0.25.
RRFVGQEVRCVQPEITHVIA showed a growth estimate of -0.248.
With ADSCRIIDSMQDQR the growth estimate was under -0.25.
With MAKDYS the growth estimate was under -0.25.
Work on PGFGVGQVSCGSCCKLFAV yielded a growth estimate of under -0.25.
With IIGIAFDCR the growth estimate was -0.25.
With SPKRGNTSWLRILFLSTWIS the growth estimate was under -0.25.
VGYIAANGVNMVVGYVIRSH gave a growth estimate of under -0.25.
PLIVGQNAHSAHVRGRKCCA was tested, and the growth estimate was under -0.25.
For AVYYSQDSGA, the growth estimate was under -0.25.
In the case of PHNFCM, the growth estimate is reported as under -0.25.
Substance STLMRTVECSHRYA has a growth estimate of under -0.25.
RPLSRTRTVGKSKRGGRKSR gave a growth estimate of under -0.25.
In the case of GCHGTRDKKGGLETSESATL, the growth estimate is reported as under -0.25.
With GTRWFFCETTMSTGLVSLLI the growth estimate was under -0.25.
In the case of GFQTILSYGLAIVHIYSCNR, the growth estimate is reported as under -0.25.
LSPCAQSWACYLHGTVCLPG was tested, and the growth estimate was -0.246.
PNRCSGCACANHRRFQSYR was tested, and the growth estimate was under -0.25.
For HDLVNLRAHIETESHLGYII, the growth estimate was under -0.25.
For RIKGGGLSCDW, the growth estimate was under -0.25.
GDWVFIWFIFRV gave a growth estimate of under -0.25.
In the case of RTLSCRGSRQSTSMTSGAAR, the growth estimate is reported as under -0.25.
For SDAMQHRK, the growth estimate was under -0.25.
In the case of GWFESA, the growth estimate is reported as under -0.25.
For QCV, the growth estimate was under -0.25.
GTGD gave a growth estimate of under -0.25.
FDRRLHEREHPTAHDACVEV gave a growth estimate of under -0.25.
PVG showed a growth estimate of under -0.25.
Substance GRPKPVKLGRGPREFPYWSR has a growth estimate of under -0.25.
TPFKVSLLVSEPCRVRGFTV was tested, and the growth estimate was under -0.25.
GGLFWDRSACANPGGNTVRQ was tested, and the growth estimate was under -0.25.
GPGLALVPGIGPGLGSVVQN was tested, and the growth estimate was under -0.25.
GDTRCRRRTAL was tested, and the growth estimate was under -0.25.
GSRGSHNRGRV was tested, and the growth estimate was under -0.25.
KKIVNSI was tested, and the growth estimate was under -0.25.
In the case of LSLSAG, the growth estimate is reported as under -0.25.
MKQSEMIVCKL was tested, and the growth estimate was under -0.25.
For KLRFTRP, the growth estimate was under -0.25.
Work on ARAQWAFTSDASGANAHQLE yielded a growth estimate of under -0.25.
In the case of HIVGDRL, the growth estimate is reported as under -0.25.
GDGSAGPAN was tested, and the growth estimate was under -0.25.
RAGRDYCLKNCCVRNVPSTP showed a growth estimate of -0.25.
ADPCLQPSSAPESATTIVSR gave a growth estimate of under -0.25.
For LRLHFILRRDRNEYVMCVSR, the growth estimate was under -0.25.
GVISQ was tested, and the growth estimate was under -0.25.
Substance TDVNYYYAAGSLLLLYCTAR has a growth estimate of under -0.25.
With YLVFLSHDTNYRETGGEHLI the growth estimate was under -0.25.
Work on VQIYLRRGRVRCDRRLSPPT yielded a growth estimate of under -0.25.
Work on PRMHGKSGGCK yielded a growth estimate of under -0.25.
Work on RKGSER yielded a growth estimate of under -0.25.
KAGPPNRARRE was tested, and the growth estimate was under -0.25.
Substance AMIEQEMAVCRVKGYTTEAN has a growth estimate of under -0.25.
With YTR the growth estimate was under -0.25.
For ESCI, the growth estimate was under -0.25.
NYECLDGIRGTFKPRRGS gave a growth estimate of under -0.25.
With SSAMDCVLSAPEVY the growth estimate was under -0.25.
Substance GMRCGTREAKGKT has a growth estimate of under -0.25.
With AGSCCLAEWKCNKMR the growth estimate was under -0.25.
For GVGKRVRPMCPRWPGSYSG, the growth estimate was under -0.25.
Substance PRQSCSAASDYLGRSRTKGG has a growth estimate of under -0.25.
Substance PRSVASGVSQGWGHRVESRK has a growth estimate of under -0.25.
For TYFSLRGRWVRLGWICTISA, the growth estimate was under -0.25.
Work on SLVVAYRKRCVCGASVR yielded a growth estimate of under -0.25.
In the case of RCRLRDGSRQLLLAS, the growth estimate is reported as under -0.25.
With APGRQSCPRAVRGT the growth estimate was under -0.25.
With CLPEHRQFLRYSID the growth estimate was under -0.25.
With VIDQSLGE the growth estimate was under -0.25.
For SASAFHMGGG, the growth estimate was under -0.25.
Work on LSVISPCSDRSRRCGCATYE yielded a growth estimate of under -0.25.
Substance HGGTVERGFAAYDL has a growth estimate of under -0.25.
In the case of GRKKPMSLGGIITDRTRFPP, the growth estimate is reported as under -0.25.
In the case of FLSPSPSRTQPAE, the growth estimate is reported as -0.245.
WAVGR was tested, and the growth estimate was under -0.25.
In the case of TRR, the growth estimate is reported as under -0.25.
YGITDADARRSHASIRPHSR gave a growth estimate of under -0.25.
Substance RCFGPACEVWSR has a growth estimate of under -0.25.
For LQNQGLVSFLCVPCAILHSN, the growth estimate was under -0.25.
For FERQSGRAPGSRGDPRKSTE, the growth estimate was under -0.25.
VLIVSLR was tested, and the growth estimate was under -0.25.
In the case of QFSSQRLAGRS, the growth estimate is reported as under -0.25.
For LVQLIESGVSCAPVRKK, the growth estimate was under -0.25.
In the case of GVGQRYVDLESRLRGSRVGS, the growth estimate is reported as under -0.25.
With QRSDYLTRRVRYPATPGKAN the growth estimate was under -0.25.
For SLVWSSSWGDGTNVGLT, the growth estimate was -0.245.
